{
  "source": "patent US20240300957A1",
  "about": "“TETRAZOLE-SUBSTITUTED ETHYL-SULFONE / SULFOXIMINE-PYRIDINE DERIVATIVES” (Boehringer Ingelheim Vetmedica GmbH, priority 2023, published 2024)",
  "note": "Some of these results come from one statement about several compounds together.",
  "data": [
    {"system": "Aphids (Myzus persicae)", "test": "Insecticidal test on Myzus persicae (foliar application on potted Chinese cabbage)", "assay_type": "in vivo", "details": "50 ppm, 6 days after application, greenhouse", "values": [
      {"smiles": "CCS(=O)(=O)c1cc(-c2nnnn2C)cnc1-c1nc2cc(C(F)(F)C(F)(F)F)cnc2n1C", "note": "[Compound 15]", "control efficacy level (control rate)": "A (the control rate is 100%)"},
      {"smiles": "CCS(=O)(=O)c1cc(-c2nnn(C(C)C)n2)cnc1-c1nc2cc(C(F)(F)C(F)(F)F)nnc2n1C", "note": "[Compound 10]", "control efficacy level (control rate)": "A (the control rate is 100%)"},
      {"smiles": "CCS(=O)(=O)c1cc(-c2nnnn2C2CC2)cnc1-c1nc2cc(C(F)(F)C(F)(F)F)nnc2n1C", "note": "[Compound 1, 6-[5-(1-cyclopropyltetrazol-5-yl)-3-ethylsulfonyl-2-pyridyl]-7-methyl-3-(1,1,2,2,2-pentafluoroethyl)imidazo[4,5-c]pyridazine]", "control efficacy level (control rate)": "A (the control rate is 100%)"},
      {"smiles": "CCS(=O)(=O)c1cc(-c2nnn(C)n2)cnc1-c1nc2cc(S(=O)(=O)C(F)(F)F)nnc2n1C", "note": "[Compound 9]", "control efficacy level (control rate)": "A (the control rate is 100%)"},
      {"smiles": "CCS(=O)(=O)c1cc(-c2nnn(C)n2)cnc1-c1nc2cc(C(F)(F)C(F)(F)F)cnc2n1C", "note": "[Compound 14]", "control efficacy level (control rate)": "A (the control rate is 100%)"},
      {"smiles": "CCS(=O)(=O)c1cc(-c2nnnn2C)cnc1-c1nc2cc(C(F)(F)C(F)(F)F)nnc2n1C", "note": "[Compound 4]", "control efficacy level (control rate)": "A (the control rate is 100%)"}
    ]}
  ]
}
